Measured values: PubChem BioAssay AID504834 (National Center for Advancing Translational Sciences (NCATS), 2011)
Screen size: about 320,000 compounds; about 22,000 (6.9%) were called active. The inconclusive results got no clear call from the source; some entries with a clear call stand among them for comparison. Calls follow the shape of the dose curve; as a rule, active = well fitted inhibition curve with a large enough effect; inconclusive = small, poorly fitted or top-dose-only effect, or another doubt; inactive = no such curve, though single readings can be large or run the other way. A potency beside an inconclusive call is a rough fit, not a confirmed value.

Assay: Primary qHTS for delayed death inhibitors of the malarial parasite plastid, 96 hour incubation
Details: P. falciparum luciferase reporter growth; series mostly up to 28.7 µM; activity change, negative = inhibition: at the top concentration
Method in brief: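 Two-generation exposure (96 h) targets delayed-death phenotype. Reporter parasites carrying integrated firefly luciferase, in red cells at 2% hematocrit and 0.05% parasitemia final, kept at 37 C, 5% CO2; luminescence loss indicates inhibition.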
% is scaled to controls: 0 for no effect and ±100 for the full control effect; potency is read from the fitted curve at half-maximal effect.

Structure (SMILES)	Potency	activity change, negative = inhibition
O=C(c1ccccc1)C1CCN(C(=O)C2CCC(=O)N(Cc3ccccc3F)C2)CC1 (configuration not stated)	inconclusive: 11.7 µM [inhibitor, single point]	–
COc1ccccc1NC(=O)C(C)OC(=O)CCNS(=O)(=O)c1ccc(C)c(C)c1 (configuration not stated)	–	inactive: 24.1%
O=C(Nc1ccccc1OC(=O)N1CCOCC1)N1CCOCC1	–	inactive: -1.92%
CCc1noc(C)c1C(=O)NNC(=O)c1ccc(N(CC)CC)cc1	inconclusive: 4.15 µM [inhibitor, partial curve]	–
CCc1ccc(N(C(=O)c2ccco2)C(C(=O)NC2CCCC2)c2cccnc2)cc1 (configuration not stated)	inconclusive: 5.86 µM [inhibitor, partial curve, poor fit]	–
COc1cc(C(=O)OCC(=O)Nc2cccc(S(=O)(=O)N3CCOCC3)c2)ccc1OCC(C)C	inconclusive: 9.28 µM [inhibitor, partial curve, poor fit]	–
Cc1csc(NC(=O)c2ccc(C)c(S(=O)(=O)N3CCCCC3)c2)n1	active: 4.15 µM	–
Cc1ccc(CCNC(=O)C2CCN(S(=O)(=O)N3CCOCC3)CC2)cc1	inconclusive: 10.4 µM [inhibitor, single point]	–
CCOC(=O)c1[nH]c(COC(=O)CCCOc2ccccc2)c(C(=O)OCC)c1C	inconclusive: 11.7 µM [inhibitor, single point]	–
CCOc1ccc(Nc2nc(Cc3nnc(SCC(=O)O)o3)cs2)cc1	inconclusive: 18.5 µM [inhibitor, single point]	–
CCOC(=O)N1CCC(Nc2c(NCCCN(CC)c3cccc(C)c3)c(=O)c2=O)CC1	inconclusive: 11.7 µM [inhibitor, single point]	–
NC(=O)NC(=O)CSc1nc2cc([N+](=O)[O-])ccc2n1-c1cccc(C(F)(F)F)c1	inconclusive: 10.4 µM [inhibitor, single point]	–
CCCCOc1ccc(C(=O)Oc2ccc(C)nc2)cc1	inconclusive: 8.28 µM [inhibitor, partial curve, poor fit]	–
COc1ccc(O)c(/C=N/NC(=O)CCC(=O)Nc2ccc(F)cc2)c1	–	inactive: 45.2%
COc1ccc(-c2cc(-c3ccccc3)c(C#N)c(=S)[nH]2)cc1	–	inactive: 0.841%
Cc1[nH]c(C)c(S(=O)(=O)Nc2cccc(Cl)c2C)c1C(=O)N1CCCC1	inconclusive: 9.28 µM [inhibitor, single point]	–
COCC(C)n1c(SCC(=O)c2cc(C)n(C)c2C)nc2ccccc2c1=O (configuration not stated)	inconclusive: 11.7 µM [inhibitor, partial curve]	–
Cc1cc(Br)ccc1NC(=O)CNC(=O)Cc1ccc(S(=O)(=O)N2CCOCC2)s1	inconclusive: 11.7 µM [inhibitor, single point]	–
COc1ccccc1NC(=O)Cn1cnc2c(nc3n2CCCCC3)c1=O	inconclusive: 9.28 µM [inhibitor, partial curve, poor fit]	–
CCOCC(=O)Nc1ccc(S(=O)(=O)N2CCC(c3nc4ccccc4[nH]3)CC2)cc1	inconclusive: 1.65 µM [inhibitor, partial curve, poor fit]	–
CC(C)CNC(=S)NC1CC2CCCC(C1)N2C1CCCCC1 (configuration not stated)	–	inactive: 15.7%

Structure (SMILES)	Potency	activity change, negative = inhibition
CN(CC(=O)Nc1ccc(F)c(F)c1F)c1cnccn1	inconclusive: 18.5 µM [inhibitor, single point]	–
O=C(NC1CCCCCC1)c1ccc(-n2cnnc2)cc1	–	inactive: 25.3%
C[C@H]1CN(Cc2ccccc2)C(=O)[C@@H]1CC(=O)NCc1ccccc1	inconclusive: 18.5 µM [inhibitor, single point]	–
CC(C)(C)NC(=O)C(OC(=O)c1cccs1)c1ccc(F)cc1 (configuration not stated)	–	inactive: 260%
CCOC(=O)C1CCN(C(=O)Cn2nc(C)c3c(C)n(-c4ccccc4)nc3c2=O)CC1	–	inactive: 62.5%
COc1ccc(-c2csc(NC(=O)c3ccccc3NS(=O)(=O)c3ccc(F)c(F)c3)n2)cc1	inconclusive: 2.62 µM [inhibitor, single point]	–
CCOc1ccc(S(=O)(=O)N(CC)CC)cc1NC(=O)c1ccc(N2CCCC2=O)cc1	inconclusive: 2.33 µM [inhibitor, partial curve]	–
O=C(Nc1ccc(F)cc1)N1CCN(c2ccc3nnc(-c4ccc(F)cc4)n3n2)CC1	inconclusive: 18.5 µM [inhibitor, partial curve, poor fit]	–
C[C@H](NC(=O)[C@H](Cc1ccccc1)NC(=O)c1cc2cc(Cl)ccc2n1C)C(=O)O	–	inactive: 11.5%
O=C(CCS(=O)(=O)c1ccc(Br)cc1)N1CCN(c2ccccc2)CC1	inconclusive: 0.0029 µM [inhibitor, full curve, poor fit]	–
O=c1c2ccccc2nc(/C=C/c2ccccc2)n1-c1ccccc1O	inconclusive: 3.29 µM [inhibitor, single point]	–
C[C@@H](NC(=O)c1nc[nH]c1C(=O)N[C@@H](Cc1ccccc1)C(=O)OCc1ccccc1)c1ccccc1	inconclusive: 11.7 µM [inhibitor, single point]	–
CC(C)OC(=O)Nc1ccc(N=C(N)N[N+](=O)[O-])cc1	inconclusive: 9.28 µM [inhibitor, partial curve, poor fit]	–
O=C(NCC12CC3CC(CC(C3)C1)C2)c1nn2c(c1Cl)NC(c1ccco1)CC2C(F)(F)F (configuration not stated)	inconclusive: 11.7 µM [inhibitor, single point]	–
Cc1onc(-c2c(Cl)cccc2Cl)c1NC(=O)NNc1ccccc1	–	inactive: -0.479%
CCOc1ccc(S(=O)(=O)N/N=C2/CC(c3ccccc3)Oc3ccccc32)cc1 (configuration not stated)	inconclusive: 8.28 µM [inhibitor, partial curve, poor fit]	–
Cc1cc2n(n1)C(c1ccccc1)CC(c1ccc(Br)cc1)=N2 (configuration not stated)	–	inactive: -9.15%
O=C(O)c1ccc(OCC(O)Cn2cnc3ccccc32)cc1 (configuration not stated)	–	inactive: 5.92%
CCCCn1c(=O)n(CC(=O)Nc2ccc(C)c(Cl)c2)c(=O)c2c1ncn2Cc1ccco1	active: 4.65 µM	–
COC(=O)c1sccc1NC(=S)N1CCCC(C)C1 (configuration not stated)	inconclusive: 1.65 µM [inhibitor, full curve]	–
Nc1nc(Cl)cc(N2CCC(c3cc(-c4ccc(Cl)cc4)n[nH]3)CC2)n1	inconclusive: 0.104 µM [inhibitor, full curve, poor fit]	–

Exported with each value named: entries from further up
O=C(NC1CCCCCC1)c1ccc(-n2cnnc2)cc1
  activity change, negative = inhibition: inactive: 25.3%
CCOc1ccc(S(=O)(=O)N(CC)CC)cc1NC(=O)c1ccc(N2CCCC2=O)cc1
  Potency: inconclusive: 2.33 µM [inhibitor, partial curve]
CC(C)OC(=O)Nc1ccc(N=C(N)N[N+](=O)[O-])cc1
  Potency: inconclusive: 9.28 µM [inhibitor, partial curve, poor fit]
O=C(O)c1ccc(OCC(O)Cn2cnc3ccccc32)cc1 (configuration not stated)
  activity change, negative = inhibition: inactive: 5.92%
